PubChem BioAssay AID1259254 – NCATS | 2017

Assay: 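Genome-wide screen for genes that prevent DNA re-replication in cancer cells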 (primary screen)
System: human HCT116 colorectal cancer cells
Reagents: single siRNA against human genes
Duration: 3 days
Measurement: 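Nuclei stained with Hoechst and imaged; cell-cycle phase assigned by DNA content; G2 share scaled per plate, non-targeting siRNA 0%, GMNN siRNA 100%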
Direction: G2 robust z-score and G2 cells, % of GMNN control: higher = more G2 cells, more excess DNA replication
Rule for the call: 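An siRNA counts as active if its G2 robust z-score lies at least 5 MADs above the screen median; here such calls match roughly 38% of GMNN control or more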
The deposit covers about 59,000 reagents; below is a part drawn at random. In the full data, about 1,550 (2.6%) are marked active. 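G2 share is only a proxy for re-replication; each gene was hit by three separate siRNAs, and active genes were retested.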 Entries without a mark were called inactive. The numbers tell different reagents against one gene apart. Not all columns of the deposit are shown. Not given: the amount of reagent.

gene symbol	reagent	G2 robust z-score	G2 cells, % of GMNN control
CBLIF (cobalamin binding intrinsic factor)	1	1.39	12.8
CBLIF (cobalamin binding intrinsic factor)	2	-0.292	0.913
CBLIF (cobalamin binding intrinsic factor)	3	-0.365	0.4
CDC27P5 (cell division cycle 27 pseudogene 5)	1	1	10
CDC27P5 (cell division cycle 27 pseudogene 5)	2	-1.4	-6.88
CDC27P5 (cell division cycle 27 pseudogene 5)	3	1.93	16.5
UGT2B15 (UDP glucuronosyltransferase family 2 member B15)	1	-0.224	1.39
UGT2B15 (UDP glucuronosyltransferase family 2 member B15)	2	1.05	10.3
UGT2B15 (UDP glucuronosyltransferase family 2 member B15)	3	6.82 (active)	50.9
TCHHL1 (trichohyalin like 1)	1	-0.0151	2.86
TCHHL1 (trichohyalin like 1)	2	-0.596	-1.22
TCHHL1 (trichohyalin like 1)	3	1.09	10.7
UQCC2 (ubiquinol-cytochrome c reductase complex assembly factor 2)	1	-0.582	-1.13
UQCC2 (ubiquinol-cytochrome c reductase complex assembly factor 2)	2	-0.482	-0.424
UQCC2 (ubiquinol-cytochrome c reductase complex assembly factor 2)	3	-0.34	0.578
HTR1F (5-hydroxytryptamine receptor 1F)	1	-0.379	0.3
HTR1F (5-hydroxytryptamine receptor 1F)	2	0.425	5.96
HTR1F (5-hydroxytryptamine receptor 1F)	3	-1.02	-4.19
EDARADD (EDAR associated via death domain)	1	-0.336	0.601
EDARADD (EDAR associated via death domain)	2	2.45	20.2
EDARADD (EDAR associated via death domain)	3	-0.277	1.02
CYB5R4 (cytochrome b5 reductase 4)	1	0.415	5.89
CYB5R4 (cytochrome b5 reductase 4)	2	0.568	6.97
CYB5R4 (cytochrome b5 reductase 4)	3	-1.38	-6.72

In a second layout: 4 of the entries above
EDARADD (EDAR associated via death domain) #1
- G2 robust z-score: -0.336
- G2 cells, % of GMNN control: 0.601

EDARADD (EDAR associated via death domain) #2
- G2 robust z-score: 2.45
- G2 cells, % of GMNN control: 20.2

EDARADD (EDAR associated via death domain) #3
- G2 robust z-score: -0.277
- G2 cells, % of GMNN control: 1.02

CYB5R4 (cytochrome b5 reductase 4) #1
- G2 robust z-score: 0.415
- G2 cells, % of GMNN control: 5.89

The listing continues.
gene symbol	reagent	G2 robust z-score	G2 cells, % of GMNN control
LINC01465 (long independently transcribed non-coding RNA 1465)	1	0.733	8.13
LINC01465 (long independently transcribed non-coding RNA 1465)	2	-0.373	0.341
LINC01465 (long independently transcribed non-coding RNA 1465)	3	-0.645	-1.57
SLC26A6	1	-0.949	-3.71
SLC26A6	2	0.413	5.88
SLC26A6	3	3.32	26.3
DNASE2 (deoxyribonuclease 2, lysosomal)	1	0.332	5.3
DNASE2 (deoxyribonuclease 2, lysosomal)	2	0.0789	3.52
DNASE2 (deoxyribonuclease 2, lysosomal)	3	3.01	24.1
IL34 (interleukin 34)	1	-0.476	-0.385
IL34 (interleukin 34)	2	4.2	32.5
IL34 (interleukin 34)	3	-0.128	2.07
MYL12BP3 (MYL12B pseudogene 3)	1	2.12	17.9
MYL12BP3 (MYL12B pseudogene 3)	2	0.0387	3.24
MYL12BP3 (MYL12B pseudogene 3)	3	-0.648	-1.59
SASS6 (SAS-6 centriolar assembly protein)	1	3.06	24.5
SASS6 (SAS-6 centriolar assembly protein)	2	1.33	12.4
SASS6 (SAS-6 centriolar assembly protein)	3	2.12	17.9
PRMT9 (protein arginine methyltransferase 9)	1	0.591	7.13
PRMT9 (protein arginine methyltransferase 9)	2	0.868	9.07
PRMT9 (protein arginine methyltransferase 9)	3	3.13	25
LOC729532 (zinc finger protein 207 pseudogene)	1	2.8	22.7
LOC729532 (zinc finger protein 207 pseudogene)	2	-0.056	2.57
LOC729532 (zinc finger protein 207 pseudogene)	3	-0.772	-2.47
LOC644686 (retired record)	1	-0.784	-2.55
LOC644686 (retired record)	2	5.05 (active)	38.5
LOC644686 (retired record)	3	-0.0253	2.79
BAZ2A (bromodomain adjacent to zinc finger domain 2A)	1	-0.658	-1.67
BAZ2A (bromodomain adjacent to zinc finger domain 2A)	2	0.681	7.76
BAZ2A (bromodomain adjacent to zinc finger domain 2A)	3	-1.03	-4.26
DELEC1 (deleted in esophageal cancer 1)	1	-1.02	-4.21
DELEC1 (deleted in esophageal cancer 1)	2	0.718	8.02
DELEC1 (deleted in esophageal cancer 1)	3	4.31	33.3
RARG (retinoic acid receptor gamma)	1	2.62	21.4
RARG (retinoic acid receptor gamma)	2	-0.787	-2.57
RARG (retinoic acid receptor gamma)	3	-1.21	-5.52
IQUB (IQ motif and ubiquitin domain containing)	1	0.317	5.2
IQUB (IQ motif and ubiquitin domain containing)	2	1.39	12.8
IQUB (IQ motif and ubiquitin domain containing)	3	0.602	7.2
OR1E2 (olfactory receptor family 1 subfamily E member 2)	1	-0.437	-0.111
OR1E2 (olfactory receptor family 1 subfamily E member 2)	2	2.84	22.9
OR1E2 (olfactory receptor family 1 subfamily E member 2)	3	-0.165	1.8
SYK (spleen associated tyrosine kinase)	1	-0.405	0.116
SYK (spleen associated tyrosine kinase)	2	-0.0382	2.7
SYK (spleen associated tyrosine kinase)	3	-0.832	-2.88
